Reference: PubChem BioAssay AID1224830 (NIAID, 2016)

Assay: 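Host factors that control LPS-induced TNF expression in human macrophages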 (primary screen)
Cells: human THP-1 monocytic leukaemia cells, TNF dual-luciferase reporter clone, PMA-differentiated to macrophage-like cells
Reagent: siRNA pool against human genes, 50 nM
Timing: LPS for 4 h, given about 3 days after siRNA transfection
Conditions: bacterial LPS (TLR4 ligand), 10 ng/ml
Measured: 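Ratio of firefly to renilla light, scaled to the plate median and expressed as a robust z-score per replicate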
Scale: TNF reporter robust z-score: higher = stronger TNF reporter response to LPS
Active means: 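Each well counts as active if its z-score is over 2.8 or under -1.5; controls are left without a call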
The deposit covers about 18,000 reagents; shown is a part drawn at random. Of all reagents, about 2,900 (16%) got an active call. 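Calls are made per well; low scores hint the gene aids the LPS response, high scores that it dampens it.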 A number with no mark means an inactive call. Repeated entries: four replicate wells of each siRNA pool.

SMURF1 | TNF reporter robust z-score: 1.22
SMURF1 | TNF reporter robust z-score: 0.75
SMURF1 | TNF reporter robust z-score: -0.34
SMURF1 | TNF reporter robust z-score: 1.43
NXF3 | TNF reporter robust z-score: -0.71
NXF3 | TNF reporter robust z-score: -0.65
NXF3 | TNF reporter robust z-score: -0.64
NXF3 | TNF reporter robust z-score: -0.53
TRIM47 | TNF reporter robust z-score: -0.93
TRIM47 | TNF reporter robust z-score: -1.5
TRIM47 | TNF reporter robust z-score: -0.06
TRIM47 | TNF reporter robust z-score: 0.29

A stretch from the list above, as a working copy:
NXF3 | TNF reporter robust z-score: -0.53
TRIM47 | TNF reporter robust z-score: -0.93

Continued.
PBLD | TNF reporter robust z-score: -0.19
PBLD | TNF reporter robust z-score: -0.43
PBLD | TNF reporter robust z-score: 0.04
PBLD | TNF reporter robust z-score: 0.24
DDX17 | TNF reporter robust z-score: -0.92
DDX17 | TNF reporter robust z-score: 2.36
DDX17 | TNF reporter robust z-score: -0.17
DDX17 | TNF reporter robust z-score: 0.01
